These are yes or no findings as the source states them, for the method shown. Binding seen in cells or lysates may run through a third protein. Here binding means that the protein was enriched with, or labelled near, the bait; the list need not be complete. Where a sequence is shown, tags or fusion partners need not be part of it.
B1: endogenous ASPP1 (HEK) (protein, UniProt Q96KQ4 1-1090)
chain: MMPMILTVFLSNNEQILTEVPITPETTCRDVVEFCKEPGEGSCHLAEVWRGNERPIPFDHMMYEHLQKWGPRREEVKFFLRHEDSPTENSEQGGRQTQEQRTQRNVINVPGEKRTENGVGNPRVELTLSELQDMAARQQQQIENQQQMLVAKEQRLHFLKQQERRQQQSISENEKLQKLKERVEAQENKLKKIRAMRGQVDYSKIMNGNLSAEIERFSAMFQEKKQEVQTAILRVDQLSQQLEDLKKGKLNGFQSYNGKLTGPAAVELKRLYQELQIRNQLNQEQNSKLQQQKELLNKRNMEVAMMDKRISELRERLYGKKIQLNRVNGTSSPQSPLSTSGRVAAVGPYIQVPSAGSFPVLGDPIKPQSLSIASNAAHGRSKSANDGNWPTLKQNSSSSVKPVQVAGADWKDPSVEGSVKQGTVSSQPVPFSALGPTEKPGIEIGKVPPPIPGVGKQLPPSYGTYPSPTPLGPGSTSSLERRKEGSLPRPSAGLPSRQRPTLLPATGSTPQPGSSQQIQQRISVPPSPTYPPAGPPAFPAGDSKPELPLTVAIRPFLADKGSRPQSPRKGPQTVNSSSIYSMYLQQATPPKNYQPAAHSALNKSVKAVYGKPVLPSGSTSPSPLPFLHGSLSTGTPQPQPPSESTEKEPEQDGPAAPADGSTVESLPRPLSPTKLTPIVHSPLRYQSDADLEALRRKLANAPRPLKKRSSITEPEGPGGPNIQKLLYQRFNTLAGGMEGTPFYQPSPSQDFMGTLADVDNGNTNANGNLEELPPAQPTAPLPAEPAPSSDANDNELPSPEPEELICPQTTHQTAEPAEDNNNNVATVPTTEQIPSPVAEAPSPGEEQVPPAPLPPASHPPATSTNKRTNLKKPNSERTGHGLRVRFNPLALLLDASLEGEFDLVQRIIYEVEDPSKPNDEGITPLHNAVCAGHHHIVKFLLDFGVNVNAADSDGWTPLHCAASCNSVHLCKQLVESGAAIFASTISDIETAADKCEEMEEGYIQCSQFLYGVQEKLGVMNKGVAYALWDYEAQNSDELSFHEGDALTILRRKDESETEWWWARLGDREGYVPKNLLGLYPRIKPRQRTLA
B2: Nidogen 1 (protein, UniProt P14543 29-1247)
chain: LSRQELFPFGPGQGDLELEDGDDFVSPALELSGALRFYDRSDIDAVYVTTNGIIATSEPPAKESHPGLFPPTFGAVAPFLADLDTTDGLGKVYYREDLSPSITQRAAECVHRGFPEISFQPSSAVVVTWESVAPYQGPSRDPDQKGKRNTFQAVLASSDSSSYAIFLYPEDGLQFHTTFSKKENNQVPAVVAFSQGSVGFLWKSNGAYNIFANDRESVENLAKSSNSGQQGVWVFEIGSPATTNGVVPADVILGTEDGAEYDDEDEDYDLATTRLGLEDVGTTPFSYKALRRGGADTYSVPSVLSPRRAATERPLGPPTERTRSFQLAVETFHQQHPQVIDVDEVEETGVVFSYNTDSRQTCANNRHQCSVHAECRDYATGFCCSCVAGYTGNGRQCVAEGSPQRVNGKVKGRIFVGSSQVPIVFENTDLHSYVVMNHGRSYTAISTIPETVGYSLLPLAPVGGIIGWMFAVEQDGFKNGFSITGGEFTRQAEVTFVGHPGNLVIKQRFSGIDEHGHLTIDTELEGRVPQIPFGSSVHIEPYTELYHYSTSVITSSSTREYTVTEPERDGASPSRIYTYQWRQTITFQECVHDDSRPALPSTQQLSVDSVFVLYNQEEKILRYALSNSIGPVREGSPDALQNPCYIGTHGCDTNAACRPGPRTQFTCECSIGFRGDGRTCYDIDECSEQPSVCGSHTICNNHPGTFRCECVEGYQFSDEGTCVAVVDQRPINYCETGLHNCDIPQRAQCIYTGGSSYTCSCLPGFSGDGQACQDVDECQPSRCHPDAFCYNTPGSFTCQCKPGYQGDGFRCVPGEVEKTRCQHEREHILGAAGATDPQRPIPPGLFVPECDAHGHYAPTQCHGSTGYCWCVDRDGREVEGTRTRPGMTPPCLSTVAPPIHQGPAVPTAVIPLPPGTHLLFAQTGKIERLPLEGNTMRKTEAKAFLHVPAKVIIGLAFDCVDKMVYWTDITEPSIGRASLHGGEPTTIIRQDLGSPEGIAVDHLGRNIFWTDSNLDRIEVAKLDGTQRRVLFETDLVNPRGIVTDSVRGNLYWTDWNRDNPKIETSYMDGTNRRILVQDDLGLPNGLTFDAFSSQLCWVDAGTNRAECLNPSQPSRRKALEGLQYPFAVTSYGKNLYFTDWKMNSVVALDLAISKETDAFQPHKQTRLYGITTALSQCPQGHNYCSVNNGGCTHLCLATPGSRTCRCPDNTLGVDCIEQK
B3: EH-domain containing 4 (protein, UniProt Q9H223 1-541)
chain: MFSWMGRQAGGRERAGGADAVQTVTGGLRSLYLRKVLPLEEAYRFHEFHSPALEDADFENKPMILLVGQYSTGKTTFIRYLLEQDFPGMRIGPEPTTDSFIAVMYGETEGSTPGNALVVDPKKPFRKLSRFGNAFLNRFMCSQLPNQVLKSISVIDSPGILSGEKQRISRGYDFCQVLQWFAERVDRIILLFDAHKLDISDEFSEAIKAFRGQDDKIRVVLNKADQVDTQQLMRVYGALMWSLGKVINTPEVLRVYIGSFWAQPLQNTDNRRLFEAEAQDLFRDIQSLPQKAAVRKLNDLIKRARLAKVHAYIISYLKKEMPSVFGKENKKRELISRLPEIYIQLQREYQISAGDFPEVKAMQEQLENYDFTKFHSLKPKLIEAVDNMLSNKISPLMNLISQEETSTPTQLVQGGAFDGTTEGPFNQGYGEGAKEGADEEEWVVAKDKPVYDELFYTLSPINGKISGVNAKKEMVTSKLPNSVLGKIWKLADCDCDGMLDEEEFALAKHLIKIKLDGYELPSSLPPHLVPPSHRKSLPKAD
B4: Pleckstrin Homology Domain Containing, Family A Member 5 (protein, UniProt Q9HAU0 1-1116)
chain: MAADLNLEWISLPRSWTYGITRGGRVFFINEEAKSTTWLHPVTGEAVVTGHRRQSTDLPTGWEEAYTFEGARYYINHNERKVTCKHPVTGQPSQDNCIFVVNEQTVATMTSEEKKERPISMINEASNYNVTSDYAVHPMSPVGRTSRASKKVHNFGKRSNSIKRNPNAPVVRRGWLYKQDSTGMKLWKKRWFVLSDLCLFYYRDEKEEGILGSILLPSFQIALLTSEDHINRKYAFKAAHPNMRTYYFCTDTGKEMELWMKAMLDAALVQTEPVKRVDKITSENAPTKETNNIPNHRVLIKPEIQNNQKNKEMSKIEEKKALEAEKYGFQKDGQDRPLTKINSVKLNSLPSEYESGSACPAQTVHYRPINLSSSENKIVNVSLADLRGGNRPNTGPLYTEADRVIQRTNSMQQLEQWIKIQKGRGHEEETRGVISYQTLPRNMPSHRAQIMARYPEGYRTLPRNSKTRPESICSVTPSTHDKTLGPGAEEKRRSMRDDTMWQLYEWQQRQFYNKQSTLPRHSTLSSPKTMVNISDQTMHSIPTSPSHGSIAAYQGYSPQRTYRSEVSSPIQRGDVTIDRRHRAHHPKHVYVPDRRSVPAGLTLQSVSPQSLQGKTLSQDEGRGTLYKYRPEEVDIDAKLSRLCEQDKVVHALEEKLQQLHKEKYTLEQALLSASQEIEMHADNPAAIQTVVLQRDDLQNGLLSTCRELSRATAELERAWREYDKLEYDVTVTRNQMQEQLDHLGEVQTESAGIQRAQIQKELWRIQDVMEGLSKHKQQRGTTEIGMIGSKPFSTVKYKNEGPDYRLYKSEPELTTVAEVDESNGEEKSEPVSEIETSVVKGSHFPVGVVPPRAKSPTPESSTIASYVTLRKTKKMMDLRTERPRSAVEQLCLAESTRPRMTVEEQMERIRRHQQACLREKKKGLNVIGASDQSPLQSPSNLRDNPFRTTQTRRRDDKELDTAIRENDVKPDHETPATEIVQLKETEPQNVDFSKELKKTENISYEMLFEPEPNGVNSVEMMDKERNKDKMPEDVTFSPQDETQTANHKPEEHPEENTKNSVDEQEETVISYESTPEVSRGNQTMAVKSLSPSPESSASPVPSTQPQLTEGSHFMCV
B5: HRAS1-related cluster protein 1 (protein, UniProt Q02833 1-373)
chain: MLLGLAAMELKVWVDGIQRVVCGVSEQTTCQEVVIALAQAIGQTGRFVLVQRLREKERQLLPQECPVGAQATCGQFASDVQFVLRRTGPSLAGRPSSDSCPPPERCLIRASLPVKPRAALGCEPRKTLTPEPAPSLSRPGPAAPVTPTPGCCTDLRGLELRVQRNAEELGHEAFWEQELRREQAREREGQARLQALSAATAEHAARLQALDAQARALEAELQLAAEAPGPPSPMASATERLHQDLAVQERQSAEVQGSLALVSRALEAAERALQAQAQELEELNRELRQCNLQQFIQQTGAALPPPPRPDRGPPGTQGPLPPAREESLLGAPSESHAGAQPRPRGGPHDAELLEVAAAPAPEWCPLAAQPQAL

Sequences of proteins named here, by UniProt entry; tags and fusion partners are left off. Residues count along the entry.
UniProt P62136: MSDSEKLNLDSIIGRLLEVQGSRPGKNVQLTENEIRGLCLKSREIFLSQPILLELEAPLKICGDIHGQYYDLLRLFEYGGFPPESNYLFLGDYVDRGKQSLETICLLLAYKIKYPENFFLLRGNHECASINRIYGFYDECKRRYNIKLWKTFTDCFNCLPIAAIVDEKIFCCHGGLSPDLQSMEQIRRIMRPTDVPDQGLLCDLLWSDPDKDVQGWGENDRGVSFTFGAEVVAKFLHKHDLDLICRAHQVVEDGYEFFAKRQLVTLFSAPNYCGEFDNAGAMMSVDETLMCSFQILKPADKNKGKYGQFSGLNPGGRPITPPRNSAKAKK
UniProt Q12923: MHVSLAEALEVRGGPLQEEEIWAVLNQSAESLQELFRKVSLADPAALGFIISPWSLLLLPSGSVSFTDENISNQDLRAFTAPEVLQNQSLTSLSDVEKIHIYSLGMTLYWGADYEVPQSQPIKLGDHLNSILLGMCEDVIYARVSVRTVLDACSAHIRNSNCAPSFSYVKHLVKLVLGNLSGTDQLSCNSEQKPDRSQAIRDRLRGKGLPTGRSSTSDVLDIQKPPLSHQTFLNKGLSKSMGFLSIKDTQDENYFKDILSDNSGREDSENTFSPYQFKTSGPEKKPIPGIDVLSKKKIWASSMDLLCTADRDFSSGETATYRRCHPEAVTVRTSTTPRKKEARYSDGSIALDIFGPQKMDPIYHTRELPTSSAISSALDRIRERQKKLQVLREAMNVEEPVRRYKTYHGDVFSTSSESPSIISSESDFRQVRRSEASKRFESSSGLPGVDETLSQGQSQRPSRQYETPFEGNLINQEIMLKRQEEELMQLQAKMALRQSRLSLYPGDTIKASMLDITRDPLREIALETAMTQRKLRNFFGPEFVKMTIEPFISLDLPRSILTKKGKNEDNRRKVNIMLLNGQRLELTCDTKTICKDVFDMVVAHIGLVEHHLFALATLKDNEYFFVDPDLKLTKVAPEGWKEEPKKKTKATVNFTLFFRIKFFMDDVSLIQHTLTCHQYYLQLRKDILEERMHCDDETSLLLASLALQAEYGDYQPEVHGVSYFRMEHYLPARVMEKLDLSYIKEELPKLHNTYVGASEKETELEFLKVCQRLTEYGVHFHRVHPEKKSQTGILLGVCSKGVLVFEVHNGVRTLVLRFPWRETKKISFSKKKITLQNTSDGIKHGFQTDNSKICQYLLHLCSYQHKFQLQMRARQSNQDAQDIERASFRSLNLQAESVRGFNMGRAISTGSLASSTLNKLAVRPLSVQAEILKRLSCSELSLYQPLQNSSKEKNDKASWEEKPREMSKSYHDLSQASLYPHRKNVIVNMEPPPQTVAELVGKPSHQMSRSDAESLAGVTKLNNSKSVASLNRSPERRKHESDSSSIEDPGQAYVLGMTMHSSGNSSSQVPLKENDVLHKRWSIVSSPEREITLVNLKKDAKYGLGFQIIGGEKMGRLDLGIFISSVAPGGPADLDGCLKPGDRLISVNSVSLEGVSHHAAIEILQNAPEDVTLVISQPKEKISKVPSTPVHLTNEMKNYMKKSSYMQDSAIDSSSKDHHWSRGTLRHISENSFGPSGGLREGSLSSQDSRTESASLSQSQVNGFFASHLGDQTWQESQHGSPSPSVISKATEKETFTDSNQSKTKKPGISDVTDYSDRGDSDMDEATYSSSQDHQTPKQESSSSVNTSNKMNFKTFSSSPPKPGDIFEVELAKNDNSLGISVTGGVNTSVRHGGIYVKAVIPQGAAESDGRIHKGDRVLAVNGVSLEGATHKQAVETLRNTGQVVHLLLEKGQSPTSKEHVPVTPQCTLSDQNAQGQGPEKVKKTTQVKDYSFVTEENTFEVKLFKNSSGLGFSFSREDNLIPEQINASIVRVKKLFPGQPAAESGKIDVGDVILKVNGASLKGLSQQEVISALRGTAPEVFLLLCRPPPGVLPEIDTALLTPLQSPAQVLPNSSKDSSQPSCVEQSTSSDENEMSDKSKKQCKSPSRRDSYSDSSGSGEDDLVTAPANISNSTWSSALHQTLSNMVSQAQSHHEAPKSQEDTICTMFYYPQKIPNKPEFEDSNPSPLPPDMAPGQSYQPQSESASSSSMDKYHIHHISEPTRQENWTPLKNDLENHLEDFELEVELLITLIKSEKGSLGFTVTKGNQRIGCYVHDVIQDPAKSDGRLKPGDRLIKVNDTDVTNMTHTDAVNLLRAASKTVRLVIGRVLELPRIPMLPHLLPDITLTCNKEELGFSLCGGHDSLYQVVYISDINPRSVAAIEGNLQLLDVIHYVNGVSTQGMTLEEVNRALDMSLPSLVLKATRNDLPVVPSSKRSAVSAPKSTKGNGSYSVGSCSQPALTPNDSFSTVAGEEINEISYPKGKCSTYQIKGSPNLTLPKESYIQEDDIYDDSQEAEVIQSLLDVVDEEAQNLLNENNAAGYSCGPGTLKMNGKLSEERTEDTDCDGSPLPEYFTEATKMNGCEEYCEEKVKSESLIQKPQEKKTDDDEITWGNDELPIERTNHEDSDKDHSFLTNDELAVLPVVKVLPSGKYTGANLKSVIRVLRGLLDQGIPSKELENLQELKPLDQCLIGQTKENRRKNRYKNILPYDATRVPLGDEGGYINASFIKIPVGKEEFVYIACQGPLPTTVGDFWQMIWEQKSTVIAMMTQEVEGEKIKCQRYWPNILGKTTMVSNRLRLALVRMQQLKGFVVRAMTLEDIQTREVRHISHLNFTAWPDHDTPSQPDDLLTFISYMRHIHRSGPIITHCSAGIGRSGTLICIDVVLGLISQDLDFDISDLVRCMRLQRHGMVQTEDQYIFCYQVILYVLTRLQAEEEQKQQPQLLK
UniProt P34741, residues 19-201: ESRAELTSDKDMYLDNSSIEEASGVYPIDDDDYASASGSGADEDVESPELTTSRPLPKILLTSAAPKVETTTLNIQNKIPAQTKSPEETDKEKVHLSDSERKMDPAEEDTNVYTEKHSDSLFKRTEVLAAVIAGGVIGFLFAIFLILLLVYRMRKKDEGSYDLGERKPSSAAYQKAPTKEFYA
UniProt Q9UKB1: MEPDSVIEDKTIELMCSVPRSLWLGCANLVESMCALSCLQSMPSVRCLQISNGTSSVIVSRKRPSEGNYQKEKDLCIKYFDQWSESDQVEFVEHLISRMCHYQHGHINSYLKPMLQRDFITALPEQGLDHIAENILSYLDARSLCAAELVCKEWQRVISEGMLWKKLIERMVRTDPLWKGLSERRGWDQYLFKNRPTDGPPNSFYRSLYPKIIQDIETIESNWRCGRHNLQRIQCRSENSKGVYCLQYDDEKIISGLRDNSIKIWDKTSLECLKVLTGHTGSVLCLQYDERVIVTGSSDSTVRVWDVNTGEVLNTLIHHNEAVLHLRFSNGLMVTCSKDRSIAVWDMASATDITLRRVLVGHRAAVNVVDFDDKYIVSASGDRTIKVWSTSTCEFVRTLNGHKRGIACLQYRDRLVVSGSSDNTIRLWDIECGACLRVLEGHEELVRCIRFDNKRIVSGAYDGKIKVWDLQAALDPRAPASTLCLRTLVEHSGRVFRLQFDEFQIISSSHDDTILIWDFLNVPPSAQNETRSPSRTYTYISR

biological target: T1, RASSF10-EYFP (human) (UniProt A6NK89); assay: affinity purification with mass spectrometry; RASSF10-EYFP (EYFP alone as control) overexpressed in HEK cells for 24 h, precipitated from lysates with GFP-Trap; NuPAGE, in-gel trypsin digest, reverse-phase nano-LC with ESI mass spectrometry; biological triplicates, high stringency
T1 sequence: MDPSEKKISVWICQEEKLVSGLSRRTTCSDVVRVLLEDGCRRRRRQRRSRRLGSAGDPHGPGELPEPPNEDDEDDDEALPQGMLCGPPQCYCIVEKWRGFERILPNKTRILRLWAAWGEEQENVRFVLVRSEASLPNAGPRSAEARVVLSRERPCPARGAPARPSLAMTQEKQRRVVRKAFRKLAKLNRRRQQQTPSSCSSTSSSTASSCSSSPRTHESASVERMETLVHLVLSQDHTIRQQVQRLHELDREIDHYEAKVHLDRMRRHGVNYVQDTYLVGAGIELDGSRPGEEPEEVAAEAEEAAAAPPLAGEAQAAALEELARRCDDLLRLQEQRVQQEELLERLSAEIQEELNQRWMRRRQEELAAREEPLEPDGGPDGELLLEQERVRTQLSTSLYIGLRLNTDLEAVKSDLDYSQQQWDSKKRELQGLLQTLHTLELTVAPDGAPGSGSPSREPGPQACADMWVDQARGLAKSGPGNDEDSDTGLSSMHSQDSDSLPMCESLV

binding, binds:
Protein phosphatase 1, catalytic subunit, alpha isoform (from UniProt P62136 1-330)
Protein tyrosine phosphatase, non-receptor type 13 (from UniProt Q12923 1-2485)
Syndecan 2 (from UniProt P34741 19-201)
F-box and WD-40 domain protein 11 (from UniProt Q9UKB1 1-542)

biological target: T1, RASSF10-EYFP (human); assay: as above; remark: another data set of the same source

binding, binds:
B1
B2
B3
B4
B5

Source: article PMC6966473
